According to PubChem BioAssay AID493014 (National Center for Advancing Translational Sciences (NCATS), 2011):
Values joined by “and” are separate entries in the source; they are usually repeats but may differ in a detail not shown here. Equal entries are not always repeated. The list shows a part of the results. These are further read-outs of the screen, such as a control signal, another cell line or another target. No call is given for them. Compounds called inactive in the main read-out are mostly missing here. The note in brackets gives the kind of curve behind each potency; many fits are weak.

Assay: qHTS Assay to Find Inhibitors of Chronic Active B-Cell Receptor Signaling
Settings: ABC-DLBCL IkBa-CBG/CBR reporter, luminescence ratio (green luciferase fused to IkBa over red control in TMD8 lymphoma cells), 4 h
In short: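 Cell line TMD8 (human ABC DLBCL), stably expressing tet-inducible CBG68-IkBa fusion and CBR; IMDM/0.5% FBS; cpd up to 46 uM; dox induction, 4 h, 37C/5% CO2; dual luminescence; green/red ratio; MG132 control.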

[1] = measured here: CBR red luminescence, cell number
[2] = measured here: IkBa-CBG green luminescence

CC(C)(C)c1ccc(Cn2c(=N)n(CC(O)c3ccco3)c3ccccc32)cc1 (stereo not given)
AC50 [1]: 35.5 µM [falling, single point]

COC(=O)c1ccc(Oc2nc(C)cc(Oc3ccccc3)n2)cc1
AC50 [1]: 2.91 µM [falling, partial curve, poor fit]

O=C1CSC(c2cccnc2)N1CCc1ccccn1 (stereo not given)
AC50 [1]: 4.47 µM [falling, full curve, poor fit]

O=C(Nc1ccc(-c2ccc(N3CCCCC3)nn2)cc1)c1ccco1
AC50 [1]: 5.8 µM [rising, full curve, poor fit]

CCCOC(=O)c1ccc(NC(=O)/C=C/c2cccs2)cc1
AC50 [1]: 9.2 µM [falling, partial curve]

O=c1ccc2ccccc2n1Cc1cccc(F)c1
AC50 [1]: 22.4 µM [rising, single point]

COc1ccc(OC)c(N(CC(=O)Nc2cccnc2)S(=O)(=O)c2ccc(C)cc2)c1
AC50 [1]: 0.291 µM [falling, full curve, poor fit]

Cc1nc(COc2ccc(C(=O)Nc3ccccc3N3CCOCC3)cc2)cs1
AC50 [1]: 5.01 µM [falling, partial curve]

Nc1cc(C(=O)OCC(=O)N2CCCC2=O)ccc1Cl
AC50 [1]: 32.6 µM [rising, partial curve, poor fit]

O=C(NCCC1CC1(Cl)Cl)c1ccc([N+](=O)[O-])cc1 (stereo not given)
AC50 [1]: 8.91 µM [rising, partial curve, poor fit]

O=C(Nc1nc(-c2ccc(F)c(F)c2)cs1)c1cc([N+](=O)[O-])ccc1N1CCOCC1
AC50 [1]: 16.4 µM [falling, partial curve, poor fit]

CN(C)Cc1c(O)ccc2c1O/C(=C\C=C\c1ccccc1)C2=O
AC50 [1]: 35.5 µM [falling, single point]

Cc1cc2c(c(SCC(=O)NCc3ccccc3Cl)n1)C(=O)OC2
AC50 [1]: 3.55 µM [rising, partial curve, poor fit]

COc1ccc(S(=O)(=O)N2CCOCC2)cc1NC(=O)c1cc2c(s1)CCCC2
AC50 [1]: 2.91 µM [rising, single point]

O=c1sc(N2CCN(c3ccc(F)cc3)CC2)nc2ccsc12
AC50 [1]: 3.66 µM [rising, full curve, poor fit]

Cc1cccc(/C(N)=N/OC(=O)Cc2ccccc2)c1
AC50 [1]: 11.2 µM [rising, partial curve]

O=C(CCCN1C(=O)/C(=C/c2cccc(Br)c2)SC1=S)NCCCN1CCOCC1
AC50 [1]: 5.01 µM [falling, partial curve]

Cc1ccc(CSc2nnc(-c3cccs3)n2C)cc1
AC50 [1]: 16.4 µM [falling, single point]

COc1ccc(/C=N/Nc2nc3ccccc3[nH]2)cc1OC
AC50 [1]: 29.1 µM [falling, single point]

O=C1NC(=Nc2ccccc2)SC1Cc1cccc(Cl)c1Cl (stereo not given)
AC50 [1]: 9.2 µM [falling, partial curve, poor fit]

C/C(=N\NC(=O)c1cccc(O)c1)c1cccc(NC(=O)c2ccc(F)cc2)c1
AC50 [1]: 1.78 µM [falling, partial curve, poor fit]

Cc1cc(Cl)ccc1NC(=S)NCCC(c1ccccc1)c1ccccc1
AC50 [1]: 29.1 µM [falling, single point]

O=C(c1ccc(N2C(=O)c3ccccc3C2=O)cc1)N1CCCCC1
AC50 [1]: 12.6 µM [rising, single point]

CCN(CC)S(=O)(=O)c1ccc(Cl)c(NC(=O)COC(=O)c2cc(-c3ccccc3Cl)nc3ccccc23)c1
AC50 [1]: 20.6 µM [rising, partial curve, poor fit]

O=C(COc1ccc2ccccc2c1Br)Nc1ccncc1
AC50 [1]: 1.58 µM [rising, full curve]

NS(=O)(=O)c1ccc(NC(=S)NC(=O)c2ccc(-c3ccccc3)cc2)cc1
AC50 [1]: 29.1 µM [rising, partial curve, poor fit]

O=[N+]([O-])c1c(C(Cl)Cl)nn(-c2ccccc2)c1N1CCCC1
AC50 [1]: 31.6 µM [rising, single point]

O=C(Oc1cc(=O)oc2ccccc12)c1ccccc1
AC50 [1]: 3.98 µM [falling, partial curve]

COc1cccc(NC(=O)CN(C)C(=O)c2sc3cc(Cl)ccc3c2Cl)c1
AC50 [1]: 29.1 µM [falling, single point]

Cc1ccc(C(=O)Cc2nc3ccccc3[nH]2)cc1
AC50 [1]: 35.5 µM [falling, single point]

Fc1ccccc1Cn1nnc2c(NCc3ccccn3)ncnc21
AC50 [1]: 10.3 µM [falling, partial curve]

CCOC(=O)c1cc2sccc2n1Cc1ccc(C#N)cc1
AC50 [1]: 6.51 µM [rising, full curve, poor fit] | AC50 [2]: 18.4 µM [falling, single point]

Cc1ccc(CNC(=O)c2ccc(CSCc3ccccc3C)o2)cc1
AC50 [1]: 22.4 µM [rising, partial curve, poor fit]

c1ccc2c(c1)oc1c(NCCN3CCOCC3)ncnc12
AC50 [1]: 0.562 µM [falling, partial curve, poor fit]

CCCCNC(=S)NNC(=O)CCn1cc(C)cn1
AC50 [2]: 25.9 µM [falling, single point]

CC(c1nnc(SCC(=O)Nc2sccc2C#N)n1-c1ccc(Cl)cc1)N(C)C (stereo not given)
AC50 [1]: 4.11 µM [rising, full curve, poor fit]

N#Cc1ccc(CN2CCN(C(=O)CCNS(=O)(=O)c3ccc(F)c(Cl)c3)CC2)cc1
AC50 [1]: 4.61 µM [falling, partial curve, poor fit]

Fc1ccc(-c2n[nH]c(=S)n2Cc2ccccc2)cc1
AC50 [1]: 35.5 µM [falling, partial curve, poor fit]

CC1(C)Cc2c(sc3c2c(=N)n(Cc2ccco2)c(=O)n3Cc2ccc(F)cc2)CO1
AC50 [1]: 11.2 µM [falling, partial curve, poor fit]

CCC(=O)Nc1ccc(NC(=O)c2ccccc2Cl)nc1
AC50 [1]: 5.17 µM [falling, partial curve]

CCOc1ccc(CCNC(=O)COC(=O)C2CCN(S(=O)(=O)c3ccc(C)c(C)c3)CC2)cc1OCC
AC50 [1]: 0.0891 µM [rising, full curve, poor fit]

Cc1ccnc(Nc2nc(-c3ccc(O)cc3)cs2)c1
AC50 [1]: 12.6 µM [falling, single point]

O=C(Nc1nc2ccccc2[nH]1)c1ccc(OC(F)F)cc1
AC50 [1]: 5.01 µM [falling, full curve]

O=C(O)c1nc(-c2ccccc2)n(-c2cccc(C(F)(F)F)c2)n1
AC50 [2]: 12.6 µM [rising, partial curve, poor fit]

FC(F)(F)c1nc(SCc2ccc(Cl)cc2Cl)n[nH]1
AC50 [1]: 35.5 µM [falling, single point]

CC1Cc2cc(/C(O)=C3/C(=O)C(=O)N(Cc4cccnc4)C3c3cccc(O)c3)ccc2O1 (stereo not given)
AC50 [1]: 3.16 µM [rising, single point]

O=C(O)COc1ccc(/C=C/c2ccc3cccc([N+](=O)[O-])c3n2)cc1
AC50 [1]: 23.1 µM [falling, partial curve]

CCOc1ccccc1N1CCN(C(=O)CNC(=O)c2ccccc2F)CC1
AC50 [1]: 14.1 µM [falling, single point]

O=S(=O)(NC1CC1)c1ccc(S(=O)(=O)N(Cc2ccccn2)C2CC2)cc1
AC50 [1]: 3.55 µM [rising, single point]

Cc1ccc(OCC(=O)Nc2ccc(F)cc2)cc1C
AC50 [1]: 16.4 µM [falling, partial curve, poor fit]

O=Cc1ccccc1OCCOc1ccccc1C=O
AC50 [1]: 0.146 µM [rising, partial curve, poor fit] | AC50 [2]: 16.4 µM [falling, partial curve]

Cc1c(/C(O)=C2/C(=O)C(=O)N(Cc3cccnc3)C2c2ccccn2)cnn1-c1ccccc1 (stereo not given)
AC50 [1]: 11.2 µM [rising, partial curve, poor fit]

Cc1cc(C(=O)NNC(=O)c2ccc(C)c([N+](=O)[O-])c2)c(C)o1
AC50 [1]: 4.11 µM [falling, full curve]

Cc1cc(C)c2c(N)c(C(=O)c3ccc(Cl)c(Cl)c3)sc2n1
AC50 [1]: 0.251 µM [falling, full curve, poor fit]

O=C(COC(=O)c1ccc(Br)o1)NCCc1ccccc1
AC50 [1]: 25.1 µM [rising, single point]

O=C1[C@@H]2Cc3c([nH]c4ccccc34)C(c3ccc([N+](=O)[O-])cc3)N2C(=O)CN1C1CC1 (stereo not given in full)
AC50 [1]: 17.8 µM [falling, single point]

CN(C)N1C(N)=C(C#N)C(c2ccccc2F)C2=C1CC(C)(C)CC2=O (stereo not given)
AC50 [1]: 3.55 µM [falling, single point]

O=C(Nc1ccc(S(=O)(=O)Nc2nccs2)cc1)c1cc(-c2ccccc2Cl)nc2ccccc12
AC50 [1]: 10 µM [falling, partial curve]

COc1ccc(NC(=O)c2ccc(CN3CCN(c4ccccc4)CC3)cc2)cc1OC
AC50 [1]: 23.1 µM [falling, partial curve, poor fit]

COC(=O)N1C(=O)[C@](c2ccccc2)(C2CCCC2)N1C(=O)OC
AC50 [1]: 35.5 µM [falling, single point]

COc1ccc(/C=C/C(=O)Nc2ccccc2C(=O)O)cc1OC
AC50 [1]: 1.41 µM [falling, full curve] and 891 nM [falling, full curve]

Cc1ccc(SCc2[nH]nc3c2C(C(C)C)C(C#N)=C(N)O3)cc1 (stereo not given)
AC50 [1]: 10 µM [falling, partial curve, poor fit]

COc1cc(-c2cc(C(=O)Nc3cc(S(=O)(=O)N4CCOCC4)ccc3O)c3ccccc3n2)cc(OC)c1OC
AC50 [1]: 0.731 µM [rising, full curve, poor fit]
